Results are given in words; binding and its absence hold for the method and conditions named. For some assays here: Binding seen in cells or lysates may run through a third protein. Some binding calls cover weakened binding; strength is not graded here. For some assays here: Where a sequence is shown, tags or fusion partners need not be part of it.
What was measured:
[1] = target: T1, MEI4 (mouse, endogenous in testis) (mouse (endogenous in testis)) (UniProt Q8BRM6); test: co-IP; anti-MEI4 antibody cross-linked to Dynabeads Protein A; 3.6 mg total testis extract from 14 dpp mice (WT, Mei4-/-, Spo11-/-, Rec114-/-), 4°C overnight; washes with 20 mM Tris-HCl pH 7.5, 0.05% NP-40, 0.1% Tween-20, 10% glycerol, 150 mM NaCl; Western blot
T1 sequence: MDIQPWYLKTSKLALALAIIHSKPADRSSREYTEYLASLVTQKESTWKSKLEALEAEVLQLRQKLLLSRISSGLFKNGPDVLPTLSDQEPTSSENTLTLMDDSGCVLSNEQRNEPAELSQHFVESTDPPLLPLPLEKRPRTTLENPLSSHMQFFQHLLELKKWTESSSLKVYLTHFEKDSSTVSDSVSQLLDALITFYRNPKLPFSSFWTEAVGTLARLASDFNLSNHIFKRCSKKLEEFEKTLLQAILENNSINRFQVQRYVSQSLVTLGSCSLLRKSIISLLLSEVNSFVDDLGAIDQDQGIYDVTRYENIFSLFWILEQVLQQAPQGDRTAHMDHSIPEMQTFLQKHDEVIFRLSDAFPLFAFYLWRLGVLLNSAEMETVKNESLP

[2] = target: T2, MEI4 (mouse, endogenous in testis) (mouse (endogenous in testis)), Q8BRM6; test: as above; conditions: remark: other sources report otherwise
T2 chain: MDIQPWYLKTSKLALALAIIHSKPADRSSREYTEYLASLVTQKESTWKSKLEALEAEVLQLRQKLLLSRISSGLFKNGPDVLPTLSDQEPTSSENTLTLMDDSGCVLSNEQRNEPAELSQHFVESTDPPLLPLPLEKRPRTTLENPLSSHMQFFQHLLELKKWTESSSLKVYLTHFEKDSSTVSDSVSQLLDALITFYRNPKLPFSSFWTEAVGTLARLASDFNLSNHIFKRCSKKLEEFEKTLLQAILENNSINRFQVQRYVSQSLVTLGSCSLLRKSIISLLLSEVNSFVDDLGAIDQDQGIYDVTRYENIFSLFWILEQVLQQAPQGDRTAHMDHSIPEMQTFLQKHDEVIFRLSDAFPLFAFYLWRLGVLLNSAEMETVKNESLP

[3] = target: T3, Strep-REC114 (203-254) (mouse) (UniProt Q9CWH4); test: pull-down; Strep-tag pull-down: Strep-REC114 variants co-expressed with His-MEI4 (1-127) in bacteria, held on Strep-Tactin XT resin; 20 mM Tris pH 7.0, 200 mM NaCl, 5 mM mercaptoethanol; eluted with 50 mM biotin; SDS-PAGE with Coomassie and anti-His Western blot
T3 sequence: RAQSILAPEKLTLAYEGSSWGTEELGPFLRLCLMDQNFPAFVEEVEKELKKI

[4] = target: T4, Strep-REC114 full length (mouse) (UniProt Q9CWH4); test: as above
T4 sequence: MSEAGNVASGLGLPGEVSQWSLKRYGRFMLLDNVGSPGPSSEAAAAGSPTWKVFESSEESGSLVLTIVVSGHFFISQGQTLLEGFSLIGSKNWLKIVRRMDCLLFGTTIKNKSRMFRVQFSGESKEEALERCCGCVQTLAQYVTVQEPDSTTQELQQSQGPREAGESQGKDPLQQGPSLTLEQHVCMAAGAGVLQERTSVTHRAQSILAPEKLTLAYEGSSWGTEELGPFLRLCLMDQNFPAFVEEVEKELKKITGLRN

[5] = target: T3, Strep-REC114 (203-254) (mouse); test: SEC; Superdex 200 gel filtration of the co-expressed, co-purified complex (Strep-Tactin resin, TEV cleavage of the His-tag of MEI4, Ni2+ column passage); peak fractions on SDS-PAGE; both purified

B1: REC114 (mouse, endogenous in testis) (protein, UniProt Q9CWH4 1-259)
chain: MSEAGNVASGLGLPGEVSQWSLKRYGRFMLLDNVGSPGPSSEAAAAGSPTWKVFESSEESGSLVLTIVVSGHFFISQGQTLLEGFSLIGSKNWLKIVRRMDCLLFGTTIKNKSRMFRVQFSGESKEEALERCCGCVQTLAQYVTVQEPDSTTQELQQSQGPREAGESQGKDPLQQGPSLTLEQHVCMAAGAGVLQERTSVTHRAQSILAPEKLTLAYEGSSWGTEELGPFLRLCLMDQNFPAFVEEVEKELKKITGLRN
[1]
  binding: binds

B2: IHO1 (mouse, endogenous in testis), Q6PDM4 1-574 (protein)
chain: MNFNVWNVKEMLSIPSGSGITKPSNWNNNQTDCSLSDSQFLFGSQFCPENSETLLPSLDAGACLRHPKQTQQNSVDSEPSIFIKYQAKPQLLGGDTKDESLFSLPLPVGKSKGLSKQFEEKKRRATDQSDSETLHSFVSHFPEVINKLQTSVEKTEENLSSRSQSILDSVETIAKTFQETARVQHDLMVESVRDKGSMEQAILEIQRTCAARQAEFMEMKSTLKNLEVLVVEQTKNLQQFCDNLSQLIVPGILEELKKFTSVPQVAGHLKDSTSQTSPSLTQSLHFTRQEKHPSEEPATWQAQEAPAGNPSTSSQRPGECGVWDEGAESGVFQKAALPTDGLHRGDGHVKNKTVPTYCKNWVMTTRSVSNHFSNLPSQRAGNGQGLMAQGASQRDVSKFEARVKNACPEYGPQSMCSFDSLEQSATEQKGRPCRKRRRGKKQQPQRSKRGGLLDRKQGQTSKAACAFIARHHCPQSPVCDPQGPLICWLTPRSSTKSTCHILGGTGETSQTARAAQGNLVQHSQRSSTDSSSQGDQQINWFSDLSLENLEPPQCKKGGTNLLCDPDFDSSDDNF
[2]
  binding: binds

B3: His-MEI4 (1-127) (domain or fragment, UniProt Q8BRM6 1-127)
chain: MDIQPWYLKTSKLALALAIIHSKPADRSSREYTEYLASLVTQKESTWKSKLEALEAEVLQLRQKLLLSRISSGLFKNGPDVLPTLSDQEPTSSENTLTLMDDSGCVLSNEQRNEPAELSQHFVESTD
[3]
  binding: binds
[4]
  binding: binds

B4: MEI4 (1-127), His-tag removed (domain or fragment, UniProt Q8BRM6 1-127)
chain: MDIQPWYLKTSKLALALAIIHSKPADRSSREYTEYLASLVTQKESTWKSKLEALEAEVLQLRQKLLLSRISSGLFKNGPDVLPTLSDQEPTSSENTLTLMDDSGCVLSNEQRNEPAELSQHFVESTD
[5]
  binding: binds

From PMC6288613, “Mouse REC114 is essential for meiotic DNA double-strand break formation and forms a complex with MEI4” (Life Science Alliance, 2018)
